According to paper PMC8611090:
These are yes or no findings as the source states them, for the method shown. Binding seen in cells or lysates may run through a third protein. Here binding means that the protein was enriched with, or labelled near, the bait; the list need not be complete.

The chains behind the UniProt entries cited, without tags or fusion partners.
UniProt O88990: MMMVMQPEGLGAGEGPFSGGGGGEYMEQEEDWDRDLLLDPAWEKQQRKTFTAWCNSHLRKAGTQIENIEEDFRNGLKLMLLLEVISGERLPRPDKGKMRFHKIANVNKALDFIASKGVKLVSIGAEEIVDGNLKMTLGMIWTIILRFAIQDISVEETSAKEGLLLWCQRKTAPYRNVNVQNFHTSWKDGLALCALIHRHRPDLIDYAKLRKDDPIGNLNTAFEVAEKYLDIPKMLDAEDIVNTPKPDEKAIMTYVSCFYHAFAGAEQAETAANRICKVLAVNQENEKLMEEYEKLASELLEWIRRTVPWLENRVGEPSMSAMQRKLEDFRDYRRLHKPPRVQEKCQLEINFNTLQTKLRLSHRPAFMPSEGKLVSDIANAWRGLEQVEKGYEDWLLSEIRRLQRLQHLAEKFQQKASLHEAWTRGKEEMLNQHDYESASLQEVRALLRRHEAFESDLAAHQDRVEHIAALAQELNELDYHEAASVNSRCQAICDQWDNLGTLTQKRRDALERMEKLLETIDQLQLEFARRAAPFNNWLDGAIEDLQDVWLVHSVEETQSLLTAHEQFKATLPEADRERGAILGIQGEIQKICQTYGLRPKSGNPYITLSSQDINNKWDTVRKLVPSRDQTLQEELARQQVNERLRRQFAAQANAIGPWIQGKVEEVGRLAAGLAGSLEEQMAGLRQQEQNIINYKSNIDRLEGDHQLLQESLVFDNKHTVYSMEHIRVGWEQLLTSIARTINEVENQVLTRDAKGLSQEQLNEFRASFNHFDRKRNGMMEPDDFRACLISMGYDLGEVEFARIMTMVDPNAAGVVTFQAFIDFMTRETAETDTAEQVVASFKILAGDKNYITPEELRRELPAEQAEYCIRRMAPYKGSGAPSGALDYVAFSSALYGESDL
UniProt Q9CZW4: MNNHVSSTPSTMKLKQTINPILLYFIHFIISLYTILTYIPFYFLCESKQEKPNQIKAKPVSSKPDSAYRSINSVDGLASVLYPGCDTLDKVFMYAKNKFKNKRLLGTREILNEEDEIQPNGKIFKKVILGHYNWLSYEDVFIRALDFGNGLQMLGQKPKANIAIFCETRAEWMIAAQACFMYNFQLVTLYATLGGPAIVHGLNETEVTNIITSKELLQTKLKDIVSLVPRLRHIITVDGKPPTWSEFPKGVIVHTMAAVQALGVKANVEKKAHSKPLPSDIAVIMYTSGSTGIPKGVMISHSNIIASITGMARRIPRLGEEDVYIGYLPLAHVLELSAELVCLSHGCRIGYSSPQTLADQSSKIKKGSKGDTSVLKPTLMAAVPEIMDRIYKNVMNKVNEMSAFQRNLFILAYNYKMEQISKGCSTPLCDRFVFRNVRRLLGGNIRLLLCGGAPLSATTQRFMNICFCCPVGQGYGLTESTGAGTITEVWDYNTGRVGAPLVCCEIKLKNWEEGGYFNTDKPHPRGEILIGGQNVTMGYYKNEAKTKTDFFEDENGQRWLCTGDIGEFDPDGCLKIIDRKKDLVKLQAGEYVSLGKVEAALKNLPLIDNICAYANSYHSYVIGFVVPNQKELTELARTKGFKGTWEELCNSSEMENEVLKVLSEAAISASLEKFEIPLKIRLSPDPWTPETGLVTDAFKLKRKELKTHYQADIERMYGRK

B1: lysophosphatidylcholine acyltransferase 1 (LPCAT1) (protein, UniProt Q3TFD2 1-534)
chain: MRLRGRGPRAAPSSSSGAGDARRLAPPGRNPFVHELRLSALQKAQVAFMTLTLFPIRLLFAAFMMLLAWPFALLASLGPPDKEPEQPLALWRKVVDFLLKAIMRTMWFAGGFHRVAVKGRQALPTEAAILTLAPHSSYFDAIPVTMTMSSIVMKAESRDIPIWGTLIRYIRPVFVSRSDQDSRRKTVEEIKRRAQSNGKWPQIMIFPEGTCTNRTCLITFKPGAFIPGVPVQPVVLRYPNKLDTITWTWQGPGALKILWLTLCQFQNQVEIEFLPVYCPSEEEKRNPALYASNVRRVMAKALGVSVTDYTFEDCQLALAEGQLRLPADTCLLEFARLVRGLGLKPENLEKDLDKYSESARMKRGEKIRLPEFAAYLEVPVSDALEDMFSLFDESGGGEIDLREYVVALSVVCRPSQTLATIQLAFKMYGSPEDGSIDEANLSCILKTALGVSELTVTDLFQAIDQEDKGRITFDDFCGFAEMYPDYAEDYLYPDQTHFDSCAQTPPAPTPNGFCIDFSPENSDFGRKNSCKKAD

Target: ACTN3 (mouse (endogenous in C2C12)) (UniProt O88990)
Assay: affinity purification with mass spectrometry; immunoprecipitation of ACTN3 from C2C12 (LD fraction and whole cell lysate compared by silver staining), then protein mass spectrometry

binding | Molecule
binds | Acyl-CoA synthetase long chain family member 3 (ACSL3) (from UniProt Q9CZW4 1-720)
binds | B1
